# Data: the supplement of paper PMC8728848
# Some of the results follow.
# Tests used:
# Assay in all cases: glycan array binding signal (z-score within array); higher = stronger binding
# Conditions in all cases: glycan notation: IUPAC condensed, linker removed
# [1] = target: Neu5Ac(a2-3)Gal(b1-4)GlcNAc(b1-6)GalNAc
# In short: (§1)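 Arrays were curated from the Consortium for Functional Glycomics database, 3228 in total, and kept only where the protein sequence was available. Binding is expressed as a within-array Z-score. This score was averaged across arrays of the same protein sequence at different concentrations or buffers and across linkers, and negative values can be read as non-binding.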
# [2] = target: Neu5Ac(a2-3)Gal(b1-4)GlcNAc(b1-6)[Gal(b1-3)]GalNAc
# In short: as §1
# [3] = target: Neu5Ac(a2-3)Gal(b1-4)GlcNAc(b1-6)[Neu5Ac(a2-3)Gal(b1-3)]GalNAc
# In short: as §1
# [4] = target: Neu5Ac(a2-3)Gal(b1-4)GlcNAc6S
# In short: as §1
# [5] = target: Neu5Ac(a2-3)Gal(b1-4)[Fuc(a1-3)]GlcNAc
# In short: as §1
# [6] = target: Neu5Ac(a2-3)Gal(b1-4)[Fuc(a1-3)]GlcNAc(b1-2)Man
# In short: as §1
# [7] = target: Neu5Ac(a2-3)Gal(b1-4)[Fuc(a1-3)]GlcNAc(b1-3)Gal
# In short: as §1
# [8] = target: Neu5Ac(a2-3)Gal(b1-4)[Fuc(a1-3)]GlcNAc(b1-3)Gal(b1-4)GlcNAc
# In short: as §1
# [9] = target: Neu5Ac(a2-3)Gal(b1-4)[Fuc(a1-3)]GlcNAc(b1-3)Gal(b1-4)[Fuc(a1-3)]GlcNAc(b1-3)Gal(b1-4)[Fuc(a1-3)]GlcNAc
# In short: as §1
# [10] = target: Neu5Ac(a2-3)Gal(b1-4)[Fuc(a1-3)]GlcNAc(b1-3)GalNAc
# In short: as §1
# [11] = target: Neu5Ac(a2-3)Gal(b1-4)[Fuc(a1-3)]GlcNAc(b1-6)[Gal(b1-3)]GalNAc
# In short: as §1
# [12] = target: Neu5Ac(a2-3)Gal(b1-4)[Fuc(a1-3)]GlcNAc(b1-6)[Neu5Ac(a2-3)Gal(b1-3)]GalNAc
# In short: as §1
# [13] = target: Neu5Ac(a2-3)Gal(b1-4)[Fuc(a1-3)]GlcNAc6S
# In short: as §1
# [14] = target: Neu5Ac(a2-3)Gal6S(b1-4)GlcNAc
# In short: as §1
# [15] = target: Neu5Ac(a2-3)Gal6S(b1-4)[Fuc(a1-3)]GlcNAc
# In short: as §1
# Neu5Ac(a2-3)GalNAc = target: Neu5Ac(a2-3)GalNAc
# In short: as §1
# [16] = target: Neu5Ac(a2-3)GalNAc(b1-4)GlcNAc
# In short: as §1
# [17] = target: Neu5Ac(a2-3)[GalNAc(b1-4)]Gal(b1-4)Glc
# In short: as §1
# [18] = target: Neu5Ac(a2-3)[GalNAc(b1-4)]Gal(b1-4)GlcNAc
# In short: as §1
# [19] = target: Neu5Ac(a2-3)[GalNAc(b1-4)]Gal(b1-4)GlcNAc(b1-3)GalNAc
# In short: as §1
# [20] = target: Neu5Ac(a2-3)[Neu5Ac(a2-6)]GalNAc
# In short: as §1
# Neu5Ac(a2-6)Gal = target: Neu5Ac(a2-6)Gal
# In short: as §1
# [21] = target: Neu5Ac(a2-6)Gal(b1-3)GlcNAc(b1-3)[Gal(b1-4)GlcNAc(b1-6)]Gal(b1-4)Glc
# In short: as §1
# Neu5Ac(a2-6)Gal(b1-4)Glc = target: Neu5Ac(a2-6)Gal(b1-4)Glc
# In short: as §1
# [22] = target: Neu5Ac(a2-6)Gal(b1-4)GlcNAc
# In short: as §1
# [23] = target: Neu5Ac(a2-6)Gal(b1-4)GlcNAc(b1-2)Man
# In short: as §1
# [24] = target: Neu5Ac(a2-6)Gal(b1-4)GlcNAc(b1-2)Man(a1-3)Man(b1-4)GlcNAc(b1-4)GlcNAc
# In short: as §1
# [25] = target: Neu5Ac(a2-6)Gal(b1-4)GlcNAc(b1-2)Man(a1-3)[Gal(b1-4)GlcNAc(b1-2)Man(a1-6)]Man(b1-4)GlcNAc(b1-4)GlcNAc
# In short: as §1
# [26] = target: Neu5Ac(a2-6)Gal(b1-4)GlcNAc(b1-2)Man(a1-3)[GlcNAc(b1-2)Man(a1-6)]Man(b1-4)GlcNAc(b1-4)GlcNAc
# In short: as §1
# [27] = target: Neu5Ac(a2-6)Gal(b1-4)GlcNAc(b1-2)Man(a1-3)[GlcNAc(b1-4)][Neu5Ac(a2-6)Gal(b1-4)GlcNAc(b1-2)Man(a1-6)]Man(b1-4)GlcNAc(b1-4)GlcNAc
# In short: as §1
# [28] = target: Neu5Ac(a2-6)Gal(b1-4)GlcNAc(b1-2)Man(a1-3)[Man(a1-6)]Man(b1-4)GlcNAc(b1-4)GlcNAc
# In short: as §1
binder,measurement,setting,value
Clec39 (Caenorhabditis elegans) (protein) MTSFYDNSSSSSKPVPLKTSRAQKIQILIFDNWKLILYGAISTLILVLAIMFSTLFFALPAANCDENSEPTKYYTTNAEITTTITTTNQKTTSTASSHLTTISSSATQIYSESSSSSTSQSTFTQSPPEISTTTIAPSDFSCQHGFTLVNNKCWKLVTSNQARPDADKICNGYGGATLFSIKSEQDNRAMIHFVKGQDIDFLWSGLLCSAGEPISCIWDIENGSTANYSNFADGFPNIVYGNCVYFITSGDEAGQWGNEQCGQVMNFVCELPATFQGKDGCKNNYEKSCYLRFDLNLTVPQAQNFCLEKCANLVSIHSANEVRFIMTIYDFIGEILIGALAPAQDFIYWLDGTPANYNNLKFFYNSTCVHMTVAPGMQNVGKWFTRFCTETGKFLCKRSIKNSCT,glycan array binding signal (z-score),[1],-0.522
same,glycan array binding signal (z-score),[2],1.06
same,glycan array binding signal (z-score),[3],-0.555
same,glycan array binding signal (z-score),[4],0.418
same,glycan array binding signal (z-score),[5],-0.235
same,glycan array binding signal (z-score),[6],-0.505
same,glycan array binding signal (z-score),[7],-0.207
same,glycan array binding signal (z-score),[8],1.57
same,glycan array binding signal (z-score),[9],-0.512
same,glycan array binding signal (z-score),[10],4.34
same,glycan array binding signal (z-score),[11],1.91
same,glycan array binding signal (z-score),[12],0.446
same,glycan array binding signal (z-score),[13],-0.929
same,glycan array binding signal (z-score),[14],1.54
same,glycan array binding signal (z-score),[15],-1.24
same,glycan array binding signal (z-score),Neu5Ac(a2-3)GalNAc,-0.835
same,glycan array binding signal (z-score),[16],-0.703
same,glycan array binding signal (z-score),[17],-0.207
same,glycan array binding signal (z-score),[18],-0.404
same,glycan array binding signal (z-score),[19],-0.314
same,glycan array binding signal (z-score),[20],0.091
same,glycan array binding signal (z-score),Neu5Ac(a2-6)Gal,-1.34
same,glycan array binding signal (z-score),[21],-0.501
same,glycan array binding signal (z-score),Neu5Ac(a2-6)Gal(b1-4)Glc,-1.37
same,glycan array binding signal (z-score),[22],-1.22
same,glycan array binding signal (z-score),[23],-0.28
same,glycan array binding signal (z-score),[24],0.606
same,glycan array binding signal (z-score),[25],0.815
same,glycan array binding signal (z-score),[26],0.613
same,glycan array binding signal (z-score),[27],-0.538
same,glycan array binding signal (z-score),[28],1.07

# 2 entries from above in a different format:
binder	measurement	setting	value
Clec39 (Caenorhabditis elegans) (protein) MTSFYDNSSSSSKPVPLKTSRAQKIQILIFDNWKLILYGAISTLILVLAIMFSTLFFALPAANCDENSEPTKYYTTNAEITTTITTTNQKTTSTASSHLTTISSSATQIYSESSSSSTSQSTFTQSPPEISTTTIAPSDFSCQHGFTLVNNKCWKLVTSNQARPDADKICNGYGGATLFSIKSEQDNRAMIHFVKGQDIDFLWSGLLCSAGEPISCIWDIENGSTANYSNFADGFPNIVYGNCVYFITSGDEAGQWGNEQCGQVMNFVCELPATFQGKDGCKNNYEKSCYLRFDLNLTVPQAQNFCLEKCANLVSIHSANEVRFIMTIYDFIGEILIGALAPAQDFIYWLDGTPANYNNLKFFYNSTCVHMTVAPGMQNVGKWFTRFCTETGKFLCKRSIKNSCT	glycan array binding signal (z-score)	[8]	1.57
same	glycan array binding signal (z-score)	[17]	-0.207
